# Laboratory results taken from PMC7819943, “Rice protein-binding microarrays: a tool to detect cis-acting elements near promoter regions in rice”.
# The chains behind the UniProt entries cited, without tags or fusion partners.
# UniProt Q0JBA9, entry or part of it: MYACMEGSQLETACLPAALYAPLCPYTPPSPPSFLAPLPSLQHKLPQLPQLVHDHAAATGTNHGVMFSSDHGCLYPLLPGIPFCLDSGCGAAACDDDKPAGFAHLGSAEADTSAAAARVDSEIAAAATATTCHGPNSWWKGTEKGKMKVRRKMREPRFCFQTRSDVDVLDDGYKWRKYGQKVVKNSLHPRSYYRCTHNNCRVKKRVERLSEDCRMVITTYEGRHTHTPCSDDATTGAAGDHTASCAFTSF
# Some of the results follow.
# Biological target: OsWRKY34 (Oryza sativa, UniProt Q0JBA9 1-250)
# Experiment: protein-binding microarray (RPBM); PBS, 2% BSA, 51.3 ng/ul salmon testes DNA, 50 uM zinc acetate, 200 nM TF, 25 C, 1 h; high values mean tight binding
# Settings: protein: recombinant; tags: N-terminal polyhistidine and DsRed monomer fusion (pET32a); label: CyDye5-dUTP incorporated in the synthesized complementary strand; 3' TTTTT single-stranded linker to array surface; dsDNA, one strand shown
# Summary of the method: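 Using Ni–NTA, transcription factors fused N-terminally to polyhistidine and DsRed were purified after expression in E. coli BL21-CodonPlus. These were incubated at 200 nM with a blocked, double-stranded custom Agilent array for 1 h at 25 °C in a buffer containing 50 µM zinc acetate, and the array was washed. The binding signal is per-feature fluorescence intensity (arbitrary units) on an Axon 4000B scanner.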
row,Sequence,binding signal
1,CCCATCCACGTCGCCGCTATTTTCGCGGCGCGCGCGCCGCCGGAGTCACCTAGTGCAG,10000 fluorescence intensity (a.u.)
2,TACCATTTTTGTAGAAGCTCATATAGTACTATACTACAAACGGAGTCACCTAGTGCAG,8820 fluorescence intensity (a.u.)
3,TCGATCCGCGCTTTTGTCCACGTCACCAATCCGTGGCAACCGGAGTCACCTAGTGCAG,10700 fluorescence intensity (a.u.)
4,AGAGGAGTTGGGGCGGCGTGCAAGGGGCAGGGTCCCATCGCGGAGTCACCTAGTGCAG,8330 fluorescence intensity (a.u.)
5,GTACTCGCCGCCACCACCACCGCGCCGCCGCCGCCGGCCGCGGAGTCACCTAGTGCAG,9770 fluorescence intensity (a.u.)
6,CTACCGCCAGGCAGCTGCCTCCGTACTACTGCTGCCTCTTCGGAGTCACCTAGTGCAG,9220 fluorescence intensity (a.u.)
7,TCTTCTGGTTCTTGCTCTTGTTCTTCTTCTTCTTCTCCACCGGAGTCACCTAGTGCAG,9380 fluorescence intensity (a.u.)
8,GATTTCTTATGTATTTATCAAATTTGGCAACAAACTAAACCGGAGTCACCTAGTGCAG,9310 fluorescence intensity (a.u.)
9,TACCTCGGAAGCCTAGCCTATATATATCCGCCGTCTTTTCCGGAGTCACCTAGTGCAG,9420 fluorescence intensity (a.u.)
10,CCTGTCTACGTTCATTCGACTATGAAATATCCCATCCTATCGGAGTCACCTAGTGCAG,10000 fluorescence intensity (a.u.)
11,ATGTTTCTAGTCCCATTTAATTTAGTTAGTTTTTTTTTCGCGGAGTCACCTAGTGCAG,8190 fluorescence intensity (a.u.)
12,CCTTCTGCTCATTGTTCCCCAAGAGCTTCGTCTTCGACAACGGAGTCACCTAGTGCAG,8270 fluorescence intensity (a.u.)
13,TCTCGTCTCGGCCTCCGCCCCTTTCGTCCTCGCCGATCCCCGGAGTCACCTAGTGCAG,10300 fluorescence intensity (a.u.)
14,CCGTCTCCGGCCATGTCCCCGTCAATCGCCGCCTCCCAGGCGGAGTCACCTAGTGCAG,8200 fluorescence intensity (a.u.)
15,GCTGCATGTGATTCTTTGTTATGTGCTATGATTTTTTATACGGAGTCACCTAGTGCAG,9330 fluorescence intensity (a.u.)
16,CACCGCATCCACCGCCTCGCCGTCGCCGCTCGGGGCCGCCCGGAGTCACCTAGTGCAG,9580 fluorescence intensity (a.u.)
17,ATCCGCACTATCCGCCACTACCAAAACTAATTTATAAAATCGGAGTCACCTAGTGCAG,10000 fluorescence intensity (a.u.)
18,AACTCACATCGATCCCAATGGAAGCTTTATTGCTATAAACCGGAGTCACCTAGTGCAG,8580 fluorescence intensity (a.u.)
19,TGAACCAAGCCGCCTTCGTTTTTTTCTTTCTTCCCAGACTCGGAGTCACCTAGTGCAG,8230 fluorescence intensity (a.u.)
20,GCCCCACCTACCAGCGGCGGCAGCAGCATTAACCTCCTACCGGAGTCACCTAGTGCAG,8960 fluorescence intensity (a.u.)
21,AGGTATGTGGGGAGAGAGCATGGCATTAGGGTGATTCTAGCGGAGTCACCTAGTGCAG,13400 fluorescence intensity (a.u.)

row,Sequence,binding signal
1,TCCATATTGCGTCTGTCAACTATCTGGTTTCTCCAAAAGACGGAGTCACCTAGTGCAG,9020 fluorescence intensity (a.u.)
2,GCCACATTGCCAGTATTGGAGGACACTTTGCTACCGATCGCGGAGTCACCTAGTGCAG,8260 fluorescence intensity (a.u.)
3,GCGACCTCTGCGGCCCGATCTCGCCACCAACTCCGAGCGACGGAGTCACCTAGTGCAG,8820 fluorescence intensity (a.u.)
4,TTGTGCCTCATCCTTCTCTTCCAATTCCATTCTTACTGCACGGAGTCACCTAGTGCAG,8370 fluorescence intensity (a.u.)
5,AACGATATTTGACCCGATGTTGCCCGGGACTTCTCGCATACGGAGTCACCTAGTGCAG,9270 fluorescence intensity (a.u.)
6,TACACTTCATACCAACTTGTTGCTTCAATTATCCAGCTTTCGGAGTCACCTAGTGCAG,11000 fluorescence intensity (a.u.)
7,ACCTAACCACCATTCCTTGACACCTGCCCGGACCAGTTCTCGGAGTCACCTAGTGCAG,8410 fluorescence intensity (a.u.)
8,GCCCGCACTACCGCGACATCTCCTCGTCGGCGCACAGACCCGGAGTCACCTAGTGCAG,10300 fluorescence intensity (a.u.)
9,ATTCACGAATTATTTTTCGTTTGCCAATATGCCGTTTCGCCGGAGTCACCTAGTGCAG,8320 fluorescence intensity (a.u.)
10,CGCCGCCGCCCCTCGCCTGCCCGACCACCGTCGCCCCTCGCGGAGTCACCTAGTGCAG,8810 fluorescence intensity (a.u.)
11,ACATATTTCGTCTGTTTGAACTAATTTTTTCTATGGTTTGCGGAGTCACCTAGTGCAG,12000 fluorescence intensity (a.u.)
12,ATTATCCATTTAATTTCTTCATCTCCTCAACCAATCACAACGGAGTCACCTAGTGCAG,8290 fluorescence intensity (a.u.)
13,ATTTACACGTAATCTGTGTAATTGGTTTTTTTCTCTATATCGGAGTCACCTAGTGCAG,8960 fluorescence intensity (a.u.)
14,TGCAAGGCTCCTGTCGGGGTCGGGGATCTGTAGGGGCCAGCGGAGTCACCTAGTGCAG,10200 fluorescence intensity (a.u.)
15,AGCAGAGATTTTTACCACGTGTCTCAACAAATAGCCACATCGGAGTCACCTAGTGCAG,8050 fluorescence intensity (a.u.)
16,TACAATAACTTCTCCACCAACATTCTCTTCTCAACCAATACGGAGTCACCTAGTGCAG,8900 fluorescence intensity (a.u.)
17,TTAAGATTCGTGCAATAATTGGGTTGTGGGATGGACTTCTCGGAGTCACCTAGTGCAG,10300 fluorescence intensity (a.u.)
18,TTCATACGTTATAGCGACATGTTTCAGCGTCTGTTTTTATCGGAGTCACCTAGTGCAG,9290 fluorescence intensity (a.u.)
19,ACGCTGAGTGTACGAACGTGTTGTGGGAGGAGGGGATGGACGGAGTCACCTAGTGCAG,8750 fluorescence intensity (a.u.)
20,TTAGTGCATTAGTTGTAATATTGAGATTCACTTACTTTTACGGAGTCACCTAGTGCAG,8460 fluorescence intensity (a.u.)
21,ATGTGCTTCATTCTATCTGGTCAACAATGTATTACACACTCGGAGTCACCTAGTGCAG,11800 fluorescence intensity (a.u.)

# Some of the entries above in another layout:
row	Sequence	binding signal
5	AACGATATTTGACCCGATGTTGCCCGGGACTTCTCGCATACGGAGTCACCTAGTGCAG	9270 fluorescence intensity (a.u.)
6	TACACTTCATACCAACTTGTTGCTTCAATTATCCAGCTTTCGGAGTCACCTAGTGCAG	11000 fluorescence intensity (a.u.)
7	ACCTAACCACCATTCCTTGACACCTGCCCGGACCAGTTCTCGGAGTCACCTAGTGCAG	8410 fluorescence intensity (a.u.)
